Experimental data reported in the supplement of paper PMC6143611.
Structures can show the parent of a compound that is named as a salt. ± gives the uncertainty stated by the source. This is one part of the list. Baselines shift from plate to plate; read single values as rough.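 At 6 dpf, larvae had a heat-shock-induced fluorescent stripe placed in rod outer segments; shedding distance, from stripe to outer segment tip, was measured in confocal stacks, roughly three fish per compound. Controls received 0.2% DMSO vehicle; compounds were flagged for ≥20% change versus same-week control and p < 0.001 (Dunnett test, mixed-effects models).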

system: Danio rerio larva rod photoreceptor outer segment; assay: rod outer segment growth distance Dg, difference from same-week DMSO control mean; higher = more outer segment growth; settings: 20 µM; treatment time: 4 days (6-10 dpf)

SMILES | rod outer segment growth distance Dg [um]
Cc1cc(NS(=O)(=O)c2ccc(N)cc2)no1 [Sulfamethoxazole] | 0.84 ± 0.24
CC(=O)N[C@@H](CS)C(=O)O [Acetylcysteine] | -0.76 ± 0.22
C#C[C@]1(O)CC[C@H]2[C@@H]3CCC4=CC(=O)CC[C@@H]4[C@H]3CC[C@@]21CC [Levonorgestrel] | -0.69 ± 0.28
CCCCc1nc(Cl)c(CO)n1Cc1ccc(-c2ccccc2-c2nnn[nH]2)cc1 [Losartan Potassium (DuP 753)] | -1.49 ± 0.29
O=P(O)(O)C(O)(Cn1ccnc1)P(=O)(O)O [Zoledronic Acid] | 0.57 ± 0.14
CCCCCCOC(=O)NC(=N)c1ccc(NCc2nc3cc(C(=O)N(CCC(=O)OCC)c4ccccn4)ccc3n2C)cc1 [Dabigatran Etexilate] | -0.45 ± 0.3
COc1cc(Nc2ncc3c(n2)-c2ccc(Cl)cc2C(c2c(F)cccc2OC)=NC3)ccc1C(=O)O [Alisertib (MLN8237)] | 0.14 ± 0.19
COc1c(C)c2c(c(O)c1C/C=C(\C)CCC(=O)O)C(=O)OC2 [Mycophenolic acid] | 0.88 ± 0.23
CS(=O)(=O)N1CCN(Cc2cc3nc(-c4cccc5[nH]ncc45)nc(N4CCOCC4)c3s2)CC1 | -0.93 ± 0.2
CO[C@@H]1[C@@H](OC(N)=O)[C@@H](O)[C@H](Oc2ccc3c(O)c(NC(=O)c4ccc(O)c(CC=C(C)C)c4)c(=O)oc3c2C)OC1(C)C [Novobiocin Sodium] | 0.63 ± 0.23
CN1CCc2c(c3ccccc3n2Cc2ccc(C(=O)NO)cc2)C1 [Tubastatin A HCl] | -0.62 ± 0.18
c1ccc(C2CN3CCSC3=N2)cc1 (single isomer, unassigned; (-)) [(-)-Tetramisole] | 0.44 ± 0.24
O=c1c(O)c(-c2ccc(O)c(O)c2)oc2cc(O)cc(O)c12 [Quercetin Dihydrate] | -3.07 ± 1.5
Cc1cc([C@@H](C)Nc2ccccc2C(=O)O)c2nc(N3CCOCC3)cc(=O)n2c1 | 1.31 ± 0.24
CN(C)Cc1ccc(-c2nc3cccc4c3n2CCNC4=O)cc1 | -0.26 ± 0.34
C[C@H]1C[C@H]2[C@@H]3CCC4=CC(=O)C=C[C@]4(C)[C@H]3C(=O)C[C@]2(C)[C@@]1(O)C(=O)CO [Meprednisone] | 0.46 ± 0.2
CN1C(C(=O)Nc2ccccn2)=C(O)c2sccc2S1(=O)=O [Tenoxicam] | -0.23 ± 0.24
Nc1nc(=O)[nH]cc1F [Flucytosine] | 0.57 ± 0.26
CCOCC(O)COc1ccc(NC(=O)CC[S+](C)C)cc1 (stereo not drawn) [Suplatast Tosylate] | -1.04 ± 0.23

In another format: entries from further up

| SMILES | rod outer segment growth distance Dg [um] |
| --- | --- |
| C#C[C@]1(O)CC[C@H]2[C@@H]3CCC4=CC(=O)CC[C@@H]4[C@H]3CC[C@@]21CC [Levonorgestrel] | -0.69 ± 0.28 |
| CCCCc1nc(Cl)c(CO)n1Cc1ccc(-c2ccccc2-c2nnn[nH]2)cc1 [Losartan Potassium (DuP 753)] | -1.49 ± 0.29 |
| O=P(O)(O)C(O)(Cn1ccnc1)P(=O)(O)O [Zoledronic Acid] | 0.57 ± 0.14 |
| CCCCCCOC(=O)NC(=N)c1ccc(NCc2nc3cc(C(=O)N(CCC(=O)OCC)c4ccccn4)ccc3n2C)cc1 [Dabigatran Etexilate] | -0.45 ± 0.3 |
| COc1cc(Nc2ncc3c(n2)-c2ccc(Cl)cc2C(c2c(F)cccc2OC)=NC3)ccc1C(=O)O [Alisertib (MLN8237)] | 0.14 ± 0.19 |
| COc1c(C)c2c(c(O)c1C/C=C(\C)CCC(=O)O)C(=O)OC2 [Mycophenolic acid] | 0.88 ± 0.23 |
| CS(=O)(=O)N1CCN(Cc2cc3nc(-c4cccc5[nH]ncc45)nc(N4CCOCC4)c3s2)CC1 | -0.93 ± 0.2 |
| CO[C@@H]1[C@@H](OC(N)=O)[C@@H](O)[C@H](Oc2ccc3c(O)c(NC(=O)c4ccc(O)c(CC=C(C)C)c4)c(=O)oc3c2C)OC1(C)C [Novobiocin Sodium] | 0.63 ± 0.23 |
| CN1CCc2c(c3ccccc3n2Cc2ccc(C(=O)NO)cc2)C1 [Tubastatin A HCl] | -0.62 ± 0.18 |
| c1ccc(C2CN3CCSC3=N2)cc1 (single isomer, unassigned; (-)) [(-)-Tetramisole] | 0.44 ± 0.24 |
| O=c1c(O)c(-c2ccc(O)c(O)c2)oc2cc(O)cc(O)c12 [Quercetin Dihydrate] | -3.07 ± 1.5 |

Further records.

SMILES | rod outer segment growth distance Dg [um]
CNC(=O)c1cccc(-c2ccc3c(N4CCOC[C@@H]4C)nc(N4CCOC[C@@H]4C)nc3n2)c1 | -1.38 ± 0.15
CO[C@H]1C[C@@H]2CC[C@@H](C)[C@@](O)(O2)C(=O)C(=O)N2CCCC[C@H]2C(=O)O[C@H]([C@H](C)C[C@@H]2CC[C@@H](OP(C)(C)=O)[C@H](OC)C2)CC(=O)[C@H](C)/C=C(\C)[C@@H](O)[C@@H](OC)C(=O)[C@H](C)C[C@H](C)/C=C/C=C/C=C/1C [Ridaforolimus (Deforolimus, MK-8669)] | -0.23 ± 0.19
C[C@H](CS)C(=O)N1CCC[C@H]1C(=O)O [Captopril] | -0.21 ± 0.27
Nc1[nH]cnc2ncnc1-2 [Adenine HCl] | 0.39 ± 0.24
CC(C)CN(C[C@@H](O)[C@H](Cc1ccccc1)NC(=O)O[C@H]1CCOC1)S(=O)(=O)c1ccc(N)cc1 [Amprenavir] | -0.54 ± 0.3
NC(=O)NO [Hydroxyurea] | 1.26 ± 0.23
Nc1ccc(C(=O)NCC(=O)O)cc1 [4-Aminohippuric Acid] | 0.01 ± 0.18
C[C@H](NCc1ccc(OCc2cccc(F)c2)cc1)C(N)=O [Safinamide Mesylate] | 0.32 ± 0.15
CC(C)(CO)c1cc2cc(NC(=O)C3(c4ccc5c(c4)OC(F)(F)O5)CC3)c(F)cc2n1C[C@@H](O)CO | -0.81 ± 0.18
Cc1cn(-c2cc(NC(=O)c3ccc(C)c(Nc4nccc(-c5cccnc5)n4)c3)cc(C(F)(F)F)c2)cn1 [Nilotinib (AMN-107)] | -0.96 ± 0.18
Cc1c(NC(=O)OC[C@@H]2COCCN2)cn2ncnc(Nc3ccc4c(cnn4Cc4cccc(F)c4)c3)c12 | -0.93 ± 0.18
O=C(O)Cc1ccccc1Nc1c(Cl)cccc1Cl [Diclofenac Sodium] | 0.19 ± 0.23
CCCCOc1ccc(CC(=O)NO)cc1 [Bufexamac] | 1.01 ± 0.19
C[C@H]1[C@H](NC(=O)/C(=N\OC(C)(C)C(=O)O)c2csc(N)n2)C(=O)N1S(=O)(=O)O [Aztreonam] | -0.87 ± 0.23
COc1ccc(-c2cc(=O)c3c(O)cc(O[C@@H]4O[C@H](CO[C@@H]5O[C@@H](C)[C@H](O)[C@@H](O)[C@H]5O)[C@@H](O)[C@H](O)[C@H]4O)cc3o2)cc1O [Diosmin] | -0.1 ± 0.35
COC(=O)Nc1nc2cc(C(=O)c3ccc(F)cc3)ccc2[nH]1 [Flubendazole] | -1.12 ± 0.18
Cc1nc(Nc2ncc(C(=O)Nc3c(C)cccc3Cl)s2)cc(N2CCN(CCO)CC2)n1 [Dasatinib] | 0 ± 0.22
CN(C)Cc1ccc(S(=O)(=O)n2ccc(/C=C/C(=O)NO)c2)cc1 [Resminostat] | 0.2 ± 0.16
COc1cc2nc(N3CCN(C(=O)C4CCCO4)CC3)nc(N)c2cc1OC (stereo not drawn) [Terazosin HCl] | 0.15 ± 0.21
